The data set in a line: general procedure: Fmoc solid-phase peptide synthesis; 2-chlorotrityl chloride resin; HBTU/DIPEA; DIC or DIC/HOBt for capping groups. The conditions noted are these: for conjugation yield: conjugation step; for step yield: late stage modification step.
The mark [1] stands for this setting: whole synthesis, scale 0.04 mmol loading.

Consider “2′-O-methacryloylglycylphenylalanylleucylglycyl-paclitaxel (MA-GFLG-PTX)”, for which the conjugation yield stood at 68%.
The substance “N-methacryloylglycylphenylalanylleucylglycyl-aminomalonic acid (MA-GFLG-malonic Acid)” displayed a step yield of 76%.
Same read-out and setting: the figure for “N-methacryloylglycylphenylalanylleucylglycyl-thiazolidine-2-thione (MA-GFLG-TT)” is 51.9%.
For “N-methacyloylglycylphenylalanylleucylglycyl-gemcitabine (MA-GFLG-gemcitabine)”, the conjugation yield was 66.1%.
Under setting [1], “N^α, N^ε-bis(4-maleimidomethyl-cyclohexanecarbonyl-glycylphenylalanlylleucylglycyl)lysine ((MAL-GFLG)2K)” registered a crude mass of 38 mg and a crude yield of 76%.
Take “N^α-(azidophenyl)-N^ε-(4-cyano-4-(phenylcarbonothioylthio)pentanoyl-glycylphenylalanylleucylglycyl)-lysine (CTP-GFLGK-N3; CTA 4)”: the crude mass (whole synthesis, scale 0.19 mmol loading) was determined as 85 mg.
